Data on one compound can be found in ChEMBL document CHEMBL1764994, “QSAR-based permeability model for drug-like compounds” (Bioorg Med Chem, 2011).

Data set [1] deals with Caco-2. The settings on record: human.
In data set [2] the test system is Caco-2. The conditions noted are these: human, Caco-2, 2 h.

As for `COC(=O)C1=C(C)NC(C)=C(C(=O)OC)C1c1ccccc1[N+](=O)[O-]` [NIFEDIPINE], the values for the logPapp with Caco-2 [1] and in the data set with Caco-2 [2] were -4.61 and -4.49, respectively.
